PubChem BioAssay AID1259254 | NCATS – 2017
Here is a random part of about 59,000 reagents. About 1,550 of them (2.6%) were called active. 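G2 share is only a proxy for re-replication; each gene was hit by three separate siRNAs, and active genes were retested.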 Raw values vary from plate to plate and are shown uncorrected. Entries without a mark were called inactive. The numbers tell different reagents against one gene apart. Reagent sequences are not shown. Not given: the amount of reagent.

Test: 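Genome-wide screen for genes that prevent DNA re-replication in cancer cells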 (primary screen)
Cells: human HCT116 colorectal cancer cells
Reagent: single siRNA against human genes
Time to read-out: 3 days
Read-out: 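Nuclei stained with Hoechst and imaged; cell-cycle phase assigned by DNA content; G2 share scaled per plate, non-targeting siRNA 0%, GMNN siRNA 100%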
Reading the numbers: G2 robust z-score and G2 cells, % of GMNN control: higher = more G2 cells, more excess DNA replication; raw share of cells in G2: higher = larger share of cells with G2 DNA content
Rule for the call: 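An siRNA counts as active if its G2 robust z-score lies at least 5 MADs above the screen median; here such calls match roughly 38% of GMNN control or more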

gene symbol	siRNA no.	G2 robust z-score	G2 cells, % of GMNN control	raw share of cells in G2 (%)
SORBS2 (sorbin and SH3 domain containing 2)	1	-0.921	-3.51	4.03
SORBS2 (sorbin and SH3 domain containing 2)	2	0.445	6.1	7.31
SORBS2 (sorbin and SH3 domain containing 2)	3	2.62	21.4	12.4
CRABP2 (cellular retinoic acid binding protein 2)	1	-1.25	-5.85	2.08
CRABP2 (cellular retinoic acid binding protein 2)	2	0.212	4.46	6.55
CRABP2 (cellular retinoic acid binding protein 2)	3	5.9 (active)	44.5	21.2
ACD	1	1.49	13.4	6.24
ACD	2	0.573	7	7.63
ACD	3	2.59	21.2	14.1
NDRG2 (NDRG family member 2)	1	0.425	5.96	6.7
NDRG2 (NDRG family member 2)	2	0.96	9.72	9.11
NDRG2 (NDRG family member 2)	3	-1.3	-6.15	1.08
CA12 (carbonic anhydrase 12)	1	-1.07	-4.59	2.28
CA12 (carbonic anhydrase 12)	2	5.5 (active)	41.6	18.9
CA12 (carbonic anhydrase 12)	3	5.1 (active)	38.8	18.9
RIMKLB (ribosomal modification protein rimK like family member B)	1	3.59	28.3	15.5
RIMKLB (ribosomal modification protein rimK like family member B)	2	-0.34	0.576	4.73
RIMKLB (ribosomal modification protein rimK like family member B)	3	4.85	37.1	14.8
ZNF180 (zinc finger protein 180)	1	-0.97	-3.86	2.24
ZNF180 (zinc finger protein 180)	2	-1.47	-7.4	2.69
ZNF180 (zinc finger protein 180)	3	-0.628	-1.45	2.73
GRWD1 (glutamate rich WD repeat containing 1)	1	-0.339	0.58	4.3
GRWD1 (glutamate rich WD repeat containing 1)	2	-0.398	0.164	3.51
GRWD1 (glutamate rich WD repeat containing 1)	3	-0.754	-2.33	1.7
MRPS6 (mitochondrial ribosomal protein S6)	1	1.87	16.1	11.6
MRPS6 (mitochondrial ribosomal protein S6)	2	0.226	4.56	6.65
MRPS6 (mitochondrial ribosomal protein S6)	3	3.67	28.8	10.3
TECTB (tectorin beta)	1	1.42	12.9	10.9
TECTB (tectorin beta)	2	-1.05	-4.45	2.13
TECTB (tectorin beta)	3	0.268	4.85	5.06
MIEF1 (mitochondrial elongation factor 1)	1	-0.0161	2.85	4.62
MIEF1 (mitochondrial elongation factor 1)	2	1.09	10.6	8.74
MIEF1 (mitochondrial elongation factor 1)	3	1.73	15.1	8.19
OR52B6 (olfactory receptor family 52 subfamily B member 6)	1	-1.1	-4.79	2.34
OR52B6 (olfactory receptor family 52 subfamily B member 6)	2	-0.157	1.86	4.07
OR52B6 (olfactory receptor family 52 subfamily B member 6)	3	2.52	20.7	12.5
GLIPR1L2 (GLIPR1 like 2)	1	0.0453	3.29	4.93
GLIPR1L2 (GLIPR1 like 2)	2	-1.02	-4.18	1.62
GLIPR1L2 (GLIPR1 like 2)	3	-0.452	-0.215	2.99
MCF2 (MCF.2 cell line derived transforming sequence)	1	-0.0811	2.4	3.99
MCF2 (MCF.2 cell line derived transforming sequence)	2	-1.29	-6.12	3.04
MCF2 (MCF.2 cell line derived transforming sequence)	3	-0.395	0.19	5.43
NSMF	1	-0.314	0.758	4.7
NSMF	2	1.33	12.3	9.27
NSMF	3	2.32	19.3	10
RUNDC3B (RUN domain containing 3B)	1	-0.524	-0.72	3.34
RUNDC3B (RUN domain containing 3B)	2	0.187	4.28	4.4
RUNDC3B (RUN domain containing 3B)	3	-0.349	0.515	2.92
RAB39A (RAB39A, member RAS oncogene family)	1	-0.0972	2.28	6.99
RAB39A (RAB39A, member RAS oncogene family)	2	-0.47	-0.343	4.12
RAB39A (RAB39A, member RAS oncogene family)	3	-0.00824	2.91	4.92
UBXN10 (UBX domain protein 10)	1	-1.21	-5.54	2.09
UBXN10 (UBX domain protein 10)	2	0.227	4.56	4.55
UBXN10 (UBX domain protein 10)	3	-0.939	-3.64	1.26
GGT5 (gamma-glutamyltransferase 5)	1	2.34	19.5	12.3
GGT5 (gamma-glutamyltransferase 5)	2	-1.49	-7.54	2.24
GGT5 (gamma-glutamyltransferase 5)	3	1	10	7.65
SLC16A6	1	-0.687	-1.87	4.61
SLC16A6	2	-0.422	-0.00238	4.54
SLC16A6	3	-0.889	-3.29	3.53
ZFP30 (ZFP30 zinc finger protein)	1	-0.642	-1.55	3.01
ZFP30 (ZFP30 zinc finger protein)	2	0.864	9.05	10
ZFP30 (ZFP30 zinc finger protein)	3	0.608	7.24	6.37
ZNF479 (zinc finger protein 479)	1	1.09	10.7	10.6
ZNF479 (zinc finger protein 479)	2	0.775	8.42	8.58
ZNF479 (zinc finger protein 479)	3	-0.517	-0.673	4.23
ANO9 (anoctamin 9)	1	0.33	5.29	5.8
ANO9 (anoctamin 9)	2	2.5	20.5	12.2
ANO9 (anoctamin 9)	3	0.324	5.25	6.3
